Results are given in words; binding and its absence hold for the method and conditions named. Binding seen in cells or lysates may run through a third protein. Some binding calls cover weakened binding; strength is not graded here.
What was measured:
[1] = molecular target: T1, Glypican-1 (human (endogenous in RWPE-1, PC-3, DU-145)) (UniProt P35052); experiment: co-IP; 500 ug total protein of cell extract (lysis buffer: 100 mM NaCl, 10% glycerol, 20 mM Tris-HCl pH 8.0, protease and phosphatase inhibitors) incubated with anti-glypican-1 or anti-glypican-5 overnight at 4 °C, protein A/G plus-agarose beads; Wnt-3a detected by immunoblot; RWPE-1, PC-3, DU-145 (GPC1) and LNCaP (GPC5) cells
T1 sequence: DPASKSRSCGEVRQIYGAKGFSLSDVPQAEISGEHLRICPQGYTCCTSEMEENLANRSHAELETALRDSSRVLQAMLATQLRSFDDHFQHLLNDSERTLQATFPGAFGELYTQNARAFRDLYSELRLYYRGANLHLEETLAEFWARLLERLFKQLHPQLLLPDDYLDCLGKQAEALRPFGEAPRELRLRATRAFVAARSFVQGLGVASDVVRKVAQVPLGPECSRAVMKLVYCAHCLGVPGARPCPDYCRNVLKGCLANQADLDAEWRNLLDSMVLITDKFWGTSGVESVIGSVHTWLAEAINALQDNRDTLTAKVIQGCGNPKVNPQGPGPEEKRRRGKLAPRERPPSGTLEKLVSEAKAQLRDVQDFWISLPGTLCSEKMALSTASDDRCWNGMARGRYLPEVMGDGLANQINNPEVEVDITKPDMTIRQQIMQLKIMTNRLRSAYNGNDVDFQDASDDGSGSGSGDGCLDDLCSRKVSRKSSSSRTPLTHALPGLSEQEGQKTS

Protein sequences, listed by entry. Tags and fused reporters are not part of them. Residues count along the entry.
UniProt P56704, residues 19-352: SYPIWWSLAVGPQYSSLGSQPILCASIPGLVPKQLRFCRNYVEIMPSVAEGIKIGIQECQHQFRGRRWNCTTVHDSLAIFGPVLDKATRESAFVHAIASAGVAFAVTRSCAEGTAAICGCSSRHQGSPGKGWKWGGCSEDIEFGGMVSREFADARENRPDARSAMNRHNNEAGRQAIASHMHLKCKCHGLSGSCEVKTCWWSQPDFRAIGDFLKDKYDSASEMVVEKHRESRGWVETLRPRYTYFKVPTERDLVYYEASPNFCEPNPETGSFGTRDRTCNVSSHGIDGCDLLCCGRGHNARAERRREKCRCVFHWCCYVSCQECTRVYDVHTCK

[2] = molecular target: T2, Glypican-5 (human (endogenous in LNCaP)) (UniProt P78333); experiment: as above
T2 sequence: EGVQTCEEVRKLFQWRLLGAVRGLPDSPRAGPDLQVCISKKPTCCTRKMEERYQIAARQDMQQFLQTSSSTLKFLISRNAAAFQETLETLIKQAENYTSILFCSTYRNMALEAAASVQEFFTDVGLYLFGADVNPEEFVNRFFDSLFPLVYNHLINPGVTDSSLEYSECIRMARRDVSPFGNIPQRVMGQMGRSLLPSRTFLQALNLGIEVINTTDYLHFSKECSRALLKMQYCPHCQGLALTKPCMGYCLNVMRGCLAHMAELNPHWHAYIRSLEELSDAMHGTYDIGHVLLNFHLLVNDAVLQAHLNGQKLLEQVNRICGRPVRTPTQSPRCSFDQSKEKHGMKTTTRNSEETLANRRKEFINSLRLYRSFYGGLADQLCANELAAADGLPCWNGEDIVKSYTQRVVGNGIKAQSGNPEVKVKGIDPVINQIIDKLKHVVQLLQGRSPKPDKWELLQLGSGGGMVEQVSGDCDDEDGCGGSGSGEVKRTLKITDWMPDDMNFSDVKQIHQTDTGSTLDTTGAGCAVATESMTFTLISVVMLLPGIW

binding [1]: binds
binding [2]: binds
Substance: Wnt-3a (from UniProt P56704 19-352) (ligand)

From PMC8097805
